Source: US6489307B1, “Antisense compositions targeted to β1-adrenoceptor-specific mRNA and methods of use” (University of Florida, priority 1998, dated 2002)

Columns and labels:
[1] = system: SHRs; experiment: Telemetric monitoring of conscious SHRs during dobutamine infusion; type: in vivo, rat (SHR); details: 1 mg/kg
Protocol: Two days after catherization of the jugular vein, control values were taken and 1 mg/kg β1-AS-ODN was injected. 48 hr later, rats were tested for the effect of β1-AS-ODN. The rats were allowed to recover until all the cardiovascular parameters returned to control values. […] For β1-stimulation, SHRs were infused with dobutamine (β1-selective agonist) through a jugular vein catheter at 5, 10, 20, and 40 μg·kg^−1·min.^−1. Each dose was given for 5 min. continuously and at 1-hr intervals until all the cardiovascular parameters returned to baseline values so as to avoid the effect of tachyphylaxis. BP and HR were sampled every 1 min. dP/dtmax was calculated from the slope of the rising pulse-pressure curve and determined every 1 min. The difference between values at each dose and baseline was denoted as Δ.
Two days after catheterization of jugular vein, control values were taken and 1 mg/kg β1-AS-ODN was injected. Forty-eight hr later, rats were tested for the effect of β1-AS-ODN. The rats were allowed to recover until all the cardiovascular parameters returned to control values. […] For β1-stimulation, SHR were infused with dobutamine (β1-selective agonist) through jugular vein catheter at 5, 10, 20, 40 μg/kg/min. Each dose was given for 5 min continuously and at 1-hr intervals until all cardiovascular parameters returned to baseline so as to avoid the effect of tachyphylaxis. BP and HR were sampled every min. dP/dtmax was calculated from the slope of the rising pulse pressure curve and determined every min. The difference between values at each dose and baseline was denoted as Δ.

[2] = system: β1-AR; experiment: β-AR density in myocardium after ischemia-reperfusion (binding assay); set-up: species or system Sprague-Dawley rats; details: rat, in vivo
Protocol: Membrane protein was prepared from left ventricles as previously described (Baker and Pitha, 1982). For saturation studies, 100 μg membrane protein was incubated in triplicate with ^125I-(−)iodocyanopindolol (I-CYP, NEN Life Science, 6.25-100 pM) in a total volume of 250 μl containing 50 mM Tris-HCl (pH 7.4), 5 mM MgCl2 at 36° C. for 60 min. The nonspecific and β2-adrenoceptor binding were determined in the presence of 1 μM (±)-alprenolol and […] (RBI), respectively. Then the reaction mixture was passed through Whatman GF/B glass filter using Brandel harvester and the radioactivity was counted for one min.

CC(C)NCC(O)COc1ccc(CC(N)=O)cc1 (stereo not shown) [atenolol]
decline in ΔdP/dtmax and ΔHR relative to β1-AS-ODN ([1]; during a 5 hr period after injection): more profound decline
basal dP/dtmax ([1]; control 2937±277): 2450±295 mm Hg/s
resting dP/dtmax ([1]; control 2937±277): 2450±295 mmHg/sec
effect on β1-AR density in ischemic-reperfused myocardium [2]: no effect
